The record followed here is publication PMC6970983.

These are yes or no findings as the source states them, for the method shown. Binding seen in cells or lysates may run through a third protein. A result given as binding can be weak or reduced; the word gives no strength.

The target in experiment [1] is T1, linker for activation of T cell family (LAT) member 1 (mouse (endogenous in BMMCs)) (UniProt O54957).
T1 sequence: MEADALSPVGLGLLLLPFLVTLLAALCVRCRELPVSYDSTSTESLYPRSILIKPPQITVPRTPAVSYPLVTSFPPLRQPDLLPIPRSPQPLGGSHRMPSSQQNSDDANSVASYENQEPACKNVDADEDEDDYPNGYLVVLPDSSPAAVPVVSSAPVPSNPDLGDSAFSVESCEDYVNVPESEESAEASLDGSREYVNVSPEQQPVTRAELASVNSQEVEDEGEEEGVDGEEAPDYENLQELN
The experiment in a line: co-IP; postnuclear supernatants of IgE-sensitized BMMCs, non-activated or activated with antigen (TNP-BSA 0.25 μg/ml, 5 min); lysis buffer 25 mM Tris-HCl pH 7.5, 140 mM NaCl, 2 mM EDTA, 0.5% Triton X-100; LAT1 or LAT2 precipitated with specific antibodies on UltraLink protein A beads; blot with 4.1R-specific antibody.

For experiment [2], the target named is T2, LAT member 2 (non-T cell activation linker) (mouse (endogenous in BMMCs)) (UniProt Q9JHL0).
T2 sequence: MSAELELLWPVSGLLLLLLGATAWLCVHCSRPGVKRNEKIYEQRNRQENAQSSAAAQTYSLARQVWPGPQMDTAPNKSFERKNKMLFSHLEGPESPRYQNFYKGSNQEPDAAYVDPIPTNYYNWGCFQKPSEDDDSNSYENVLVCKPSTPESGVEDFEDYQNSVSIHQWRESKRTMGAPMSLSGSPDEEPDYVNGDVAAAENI
The experiment is described as above.

“Cytoskeletal protein 4.1R (mouse (endogenous in BMMCs))”: the binding entry in experiment [1] and in experiment [2] was “binds” in each case.
